# Tested on: MMP's (particularly MMP-9) in chronic wound fluid
# Settings: inhibitor 2 mM, 37° C., 24 hours; % of untreated control remaining
compound,measurement,value
"NCCCC(O)(P(=O)(O)O)P(=O)(O)O [alendronate, reference compound]","type I collagen degradation relative to that seen in the untreated control (densitometry, FIG. 4)",≤ 10%
